Experimental data from patent US11174177B2, “Systems and methods for controlling aquatic pests with sulfurous acid” (priority 2017, dated 2021).

Assay: pH and carbonates in open water after adding sulfurous acid (FIG. 6)
Assay type: physicochemical

**Q.** Which “amount of carbonates in the treated water” value (as more sulfurous acid is added) does the source give for sulfurous acid here?
**A.** Its value is “reduced”.

**Q.** What about the “pH of treated open water” value (as sulfurous acid is added, four experiments) of the same substance?
**A.** Its value is “about 5.5”.
